Reference: the supplement of paper PMC11006884
Shown are results outside the selection of targets with a hit, which stands elsewhere. Single values of this set are uncertain. The entries are a selection whose mix differs from that of the whole data set.

Amino acid sequences for entries named in this document (tags omitted). A change or cut given only in a name is not applied to a line headed by its entry.
UniProt O14733: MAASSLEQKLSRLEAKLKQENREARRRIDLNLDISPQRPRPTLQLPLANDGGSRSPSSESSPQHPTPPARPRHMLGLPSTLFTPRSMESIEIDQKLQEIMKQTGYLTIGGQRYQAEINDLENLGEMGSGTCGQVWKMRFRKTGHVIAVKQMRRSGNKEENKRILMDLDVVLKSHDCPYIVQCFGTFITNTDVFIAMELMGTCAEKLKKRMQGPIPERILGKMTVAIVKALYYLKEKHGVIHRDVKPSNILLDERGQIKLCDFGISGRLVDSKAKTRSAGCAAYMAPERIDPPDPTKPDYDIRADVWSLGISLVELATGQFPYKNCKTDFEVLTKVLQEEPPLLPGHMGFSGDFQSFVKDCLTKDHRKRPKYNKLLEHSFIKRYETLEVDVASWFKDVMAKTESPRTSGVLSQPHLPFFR
UniProt O43143: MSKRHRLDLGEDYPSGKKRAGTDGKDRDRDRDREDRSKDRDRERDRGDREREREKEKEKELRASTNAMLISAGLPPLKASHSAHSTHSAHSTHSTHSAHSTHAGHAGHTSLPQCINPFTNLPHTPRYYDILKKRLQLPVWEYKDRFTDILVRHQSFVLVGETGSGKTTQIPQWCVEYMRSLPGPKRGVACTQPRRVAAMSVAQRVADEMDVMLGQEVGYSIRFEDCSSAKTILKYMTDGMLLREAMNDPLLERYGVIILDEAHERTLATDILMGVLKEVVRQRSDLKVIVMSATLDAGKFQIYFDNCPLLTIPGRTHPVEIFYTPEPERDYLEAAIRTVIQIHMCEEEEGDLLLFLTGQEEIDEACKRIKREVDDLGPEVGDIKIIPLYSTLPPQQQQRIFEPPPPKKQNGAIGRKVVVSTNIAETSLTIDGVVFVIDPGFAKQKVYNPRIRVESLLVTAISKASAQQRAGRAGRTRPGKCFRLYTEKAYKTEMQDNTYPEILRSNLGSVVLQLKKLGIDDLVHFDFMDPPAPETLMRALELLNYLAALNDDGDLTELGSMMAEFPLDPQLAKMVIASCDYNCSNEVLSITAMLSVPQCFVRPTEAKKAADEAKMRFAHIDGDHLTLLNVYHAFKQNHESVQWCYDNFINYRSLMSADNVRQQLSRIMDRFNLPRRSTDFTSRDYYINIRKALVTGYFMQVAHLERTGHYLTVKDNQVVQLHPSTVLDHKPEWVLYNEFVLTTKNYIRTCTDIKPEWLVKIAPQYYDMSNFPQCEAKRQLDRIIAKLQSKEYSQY
UniProt O14893: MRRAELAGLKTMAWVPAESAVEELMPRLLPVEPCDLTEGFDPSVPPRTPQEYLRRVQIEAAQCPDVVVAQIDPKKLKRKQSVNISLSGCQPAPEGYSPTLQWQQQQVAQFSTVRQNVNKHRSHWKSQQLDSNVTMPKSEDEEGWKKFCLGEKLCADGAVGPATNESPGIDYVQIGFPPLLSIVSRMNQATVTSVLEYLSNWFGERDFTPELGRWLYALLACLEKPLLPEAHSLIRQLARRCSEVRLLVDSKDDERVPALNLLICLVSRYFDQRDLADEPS
UniProt O14965: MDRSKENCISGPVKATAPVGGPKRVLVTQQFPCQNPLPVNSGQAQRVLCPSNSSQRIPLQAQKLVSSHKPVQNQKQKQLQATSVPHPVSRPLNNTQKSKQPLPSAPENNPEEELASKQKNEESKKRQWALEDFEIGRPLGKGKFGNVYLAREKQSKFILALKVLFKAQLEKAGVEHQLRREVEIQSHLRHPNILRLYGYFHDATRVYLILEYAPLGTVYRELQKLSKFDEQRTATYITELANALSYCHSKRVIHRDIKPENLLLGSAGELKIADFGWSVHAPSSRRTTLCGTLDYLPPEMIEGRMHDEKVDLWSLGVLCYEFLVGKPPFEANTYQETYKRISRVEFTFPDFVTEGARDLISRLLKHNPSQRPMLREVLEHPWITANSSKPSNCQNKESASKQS
UniProt O00571: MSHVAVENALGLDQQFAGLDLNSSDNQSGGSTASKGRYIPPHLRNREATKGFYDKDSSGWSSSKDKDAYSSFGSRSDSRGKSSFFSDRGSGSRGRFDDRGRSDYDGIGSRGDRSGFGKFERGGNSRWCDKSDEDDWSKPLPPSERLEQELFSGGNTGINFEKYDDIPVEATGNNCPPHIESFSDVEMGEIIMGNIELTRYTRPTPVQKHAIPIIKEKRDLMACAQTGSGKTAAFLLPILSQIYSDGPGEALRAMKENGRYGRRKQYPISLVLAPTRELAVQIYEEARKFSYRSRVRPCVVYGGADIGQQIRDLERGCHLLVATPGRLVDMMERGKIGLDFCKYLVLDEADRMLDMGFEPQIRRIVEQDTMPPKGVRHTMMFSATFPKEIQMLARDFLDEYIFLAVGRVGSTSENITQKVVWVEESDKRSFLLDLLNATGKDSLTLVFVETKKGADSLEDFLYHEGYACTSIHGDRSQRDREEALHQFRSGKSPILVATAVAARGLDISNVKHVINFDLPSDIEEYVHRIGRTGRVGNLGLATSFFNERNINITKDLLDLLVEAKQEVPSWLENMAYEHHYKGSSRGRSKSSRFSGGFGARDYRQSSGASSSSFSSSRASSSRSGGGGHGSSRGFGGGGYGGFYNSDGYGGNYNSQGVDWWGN
UniProt O00469: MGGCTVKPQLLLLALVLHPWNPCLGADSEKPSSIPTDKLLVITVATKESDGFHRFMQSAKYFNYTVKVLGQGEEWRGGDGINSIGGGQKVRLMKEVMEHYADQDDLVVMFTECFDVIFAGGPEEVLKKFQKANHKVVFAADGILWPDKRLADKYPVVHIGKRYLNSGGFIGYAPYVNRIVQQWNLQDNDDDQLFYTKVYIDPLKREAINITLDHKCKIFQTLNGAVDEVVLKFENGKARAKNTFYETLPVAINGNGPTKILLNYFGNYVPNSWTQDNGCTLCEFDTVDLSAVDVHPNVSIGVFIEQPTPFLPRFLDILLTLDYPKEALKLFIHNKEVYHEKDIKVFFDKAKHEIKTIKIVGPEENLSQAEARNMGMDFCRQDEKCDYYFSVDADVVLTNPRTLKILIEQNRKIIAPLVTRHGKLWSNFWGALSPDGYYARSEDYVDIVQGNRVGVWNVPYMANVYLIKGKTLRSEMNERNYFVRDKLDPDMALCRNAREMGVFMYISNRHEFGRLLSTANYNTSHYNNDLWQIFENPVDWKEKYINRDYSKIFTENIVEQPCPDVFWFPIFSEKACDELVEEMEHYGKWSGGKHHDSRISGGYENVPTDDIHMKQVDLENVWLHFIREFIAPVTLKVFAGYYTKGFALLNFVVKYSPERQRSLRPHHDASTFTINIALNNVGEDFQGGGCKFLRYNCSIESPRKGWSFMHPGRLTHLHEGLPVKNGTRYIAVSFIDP
UniProt O00567: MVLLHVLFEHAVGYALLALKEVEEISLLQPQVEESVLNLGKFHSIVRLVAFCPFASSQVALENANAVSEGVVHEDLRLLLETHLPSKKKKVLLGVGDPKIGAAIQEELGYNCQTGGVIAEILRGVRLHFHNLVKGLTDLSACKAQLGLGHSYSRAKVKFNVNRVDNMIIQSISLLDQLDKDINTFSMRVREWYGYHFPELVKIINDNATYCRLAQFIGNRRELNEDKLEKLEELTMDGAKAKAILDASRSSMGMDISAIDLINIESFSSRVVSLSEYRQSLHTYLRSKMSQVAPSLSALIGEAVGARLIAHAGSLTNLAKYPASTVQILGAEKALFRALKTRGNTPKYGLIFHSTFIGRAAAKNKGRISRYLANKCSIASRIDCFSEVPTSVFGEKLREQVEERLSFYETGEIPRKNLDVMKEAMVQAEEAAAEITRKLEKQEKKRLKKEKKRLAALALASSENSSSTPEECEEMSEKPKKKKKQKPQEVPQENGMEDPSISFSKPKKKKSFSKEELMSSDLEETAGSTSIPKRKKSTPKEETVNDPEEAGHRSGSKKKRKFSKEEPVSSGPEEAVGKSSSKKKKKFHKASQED
UniProt O15173: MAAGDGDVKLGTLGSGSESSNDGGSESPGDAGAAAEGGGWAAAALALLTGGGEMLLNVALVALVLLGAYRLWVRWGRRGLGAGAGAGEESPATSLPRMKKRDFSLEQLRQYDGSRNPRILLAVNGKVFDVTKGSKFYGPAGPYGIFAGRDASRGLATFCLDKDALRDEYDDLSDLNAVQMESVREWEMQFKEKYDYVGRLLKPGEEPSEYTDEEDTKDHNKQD
UniProt O15381: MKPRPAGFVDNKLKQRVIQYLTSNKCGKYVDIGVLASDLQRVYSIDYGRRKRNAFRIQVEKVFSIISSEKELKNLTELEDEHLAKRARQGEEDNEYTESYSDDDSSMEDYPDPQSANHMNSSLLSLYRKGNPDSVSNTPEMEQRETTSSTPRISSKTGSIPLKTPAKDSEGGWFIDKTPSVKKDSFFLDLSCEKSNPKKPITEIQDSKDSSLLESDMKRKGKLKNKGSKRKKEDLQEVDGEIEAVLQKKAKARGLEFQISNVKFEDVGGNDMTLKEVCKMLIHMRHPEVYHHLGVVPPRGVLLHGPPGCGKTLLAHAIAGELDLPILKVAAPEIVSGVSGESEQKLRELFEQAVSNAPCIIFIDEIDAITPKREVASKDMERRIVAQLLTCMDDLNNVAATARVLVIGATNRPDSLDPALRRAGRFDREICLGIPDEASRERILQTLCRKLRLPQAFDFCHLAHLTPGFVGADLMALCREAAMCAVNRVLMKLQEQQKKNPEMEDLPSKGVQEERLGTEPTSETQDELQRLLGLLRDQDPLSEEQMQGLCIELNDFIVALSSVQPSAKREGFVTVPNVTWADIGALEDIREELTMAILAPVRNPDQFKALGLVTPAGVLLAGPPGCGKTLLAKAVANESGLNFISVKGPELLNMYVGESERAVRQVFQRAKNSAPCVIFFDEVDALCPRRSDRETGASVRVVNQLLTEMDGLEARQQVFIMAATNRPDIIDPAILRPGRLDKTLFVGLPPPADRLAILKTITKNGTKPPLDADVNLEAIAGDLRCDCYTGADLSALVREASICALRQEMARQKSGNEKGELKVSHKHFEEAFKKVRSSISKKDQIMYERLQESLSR
UniProt O00151: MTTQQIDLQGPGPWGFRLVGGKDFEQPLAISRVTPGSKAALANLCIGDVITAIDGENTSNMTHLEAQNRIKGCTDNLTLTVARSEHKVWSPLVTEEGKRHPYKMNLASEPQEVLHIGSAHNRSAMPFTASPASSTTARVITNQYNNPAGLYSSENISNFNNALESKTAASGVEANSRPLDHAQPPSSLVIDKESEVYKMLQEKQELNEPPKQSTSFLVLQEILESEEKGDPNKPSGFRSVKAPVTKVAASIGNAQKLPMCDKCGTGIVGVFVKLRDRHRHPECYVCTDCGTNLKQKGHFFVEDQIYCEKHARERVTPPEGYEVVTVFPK
UniProt O00244: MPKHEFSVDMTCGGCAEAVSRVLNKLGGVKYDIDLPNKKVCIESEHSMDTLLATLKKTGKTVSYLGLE
UniProt O00178: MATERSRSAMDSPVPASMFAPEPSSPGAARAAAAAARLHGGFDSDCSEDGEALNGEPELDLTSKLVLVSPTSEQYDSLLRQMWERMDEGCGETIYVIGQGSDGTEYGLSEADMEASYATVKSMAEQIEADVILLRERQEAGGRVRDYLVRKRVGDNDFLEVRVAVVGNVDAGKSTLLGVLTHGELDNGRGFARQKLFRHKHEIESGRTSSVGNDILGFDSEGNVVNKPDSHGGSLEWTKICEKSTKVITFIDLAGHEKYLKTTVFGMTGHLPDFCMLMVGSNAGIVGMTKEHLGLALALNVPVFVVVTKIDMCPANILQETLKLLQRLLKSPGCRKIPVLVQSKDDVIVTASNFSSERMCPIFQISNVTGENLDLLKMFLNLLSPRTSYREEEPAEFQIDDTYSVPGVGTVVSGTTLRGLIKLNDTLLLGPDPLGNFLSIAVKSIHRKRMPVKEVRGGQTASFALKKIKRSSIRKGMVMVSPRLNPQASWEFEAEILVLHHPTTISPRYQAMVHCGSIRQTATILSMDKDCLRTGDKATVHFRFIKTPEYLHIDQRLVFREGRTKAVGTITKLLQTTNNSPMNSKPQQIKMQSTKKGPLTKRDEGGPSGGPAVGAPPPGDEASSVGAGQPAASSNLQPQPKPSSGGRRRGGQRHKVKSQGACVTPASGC
UniProt O43175: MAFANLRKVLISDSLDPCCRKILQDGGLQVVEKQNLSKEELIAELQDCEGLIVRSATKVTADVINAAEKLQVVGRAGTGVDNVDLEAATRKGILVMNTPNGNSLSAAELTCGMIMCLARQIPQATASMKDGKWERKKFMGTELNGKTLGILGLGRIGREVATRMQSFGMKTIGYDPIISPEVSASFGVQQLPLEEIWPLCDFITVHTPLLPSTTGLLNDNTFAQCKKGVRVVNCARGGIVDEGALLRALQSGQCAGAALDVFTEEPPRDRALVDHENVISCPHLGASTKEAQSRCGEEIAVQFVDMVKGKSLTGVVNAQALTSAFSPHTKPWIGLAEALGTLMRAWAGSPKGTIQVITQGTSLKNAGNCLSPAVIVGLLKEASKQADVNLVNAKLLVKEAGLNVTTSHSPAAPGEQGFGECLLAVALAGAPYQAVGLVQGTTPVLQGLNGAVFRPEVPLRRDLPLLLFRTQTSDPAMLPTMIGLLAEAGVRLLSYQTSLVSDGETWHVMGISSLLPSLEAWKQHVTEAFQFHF

The targets below were run with COC(=O)/C=C/c1ccccc1 [methyl cinnamate] (assay: log2 ratio of iodoacetamide-alkyne labeling of the cysteine site, DMSO over compound (competition); higher = stronger covalent engagement of the cysteine by the compound, active = 1 or more). Details: 500 µM; treatment time 1 h; system: HEK293T cell lysate.
Outline: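 HEK293T lysate (2 mg/mL) was incubated with electrophile (500 µM) or vehicle for 1 h at ambient temperature and then with iodoacetamide alkyne for 1 h. Labelled proteins were clicked to sCIP-TMT reagents, pooled, digested, enriched on streptavidin and measured by Orbitrap Eclipse LC-MS/MS with FAIMS, with FragPipe quantification. The per-cysteine log2 competition ratio is mean control-channel reporter intensity over mean compound-channel reporter intensity. Across three replicates with duplicate channels, cysteines quantified in only one replicate were excluded.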

log2 ratio of iodoacetamide-alkyne labeling, inactive:
PES1 C272 (UniProt O00541) 0.277
GNPAT C73 (UniProt O15228) 0.342
UniProt O15042_C624 0.259
UniProt O14733_C360 -0.061
DHX15 C774 (UniProt O43143) 0.137
GEMIN2 C63 (UniProt O14893) -0.00803
UniProt O14965_C393 0.174
DDX3X C317 (UniProt O00571) -0.0622
PLOD2 C494 (UniProt O00469) 0.221
UniProt O00567_C52 -0.262
PGRMC2 C159 (UniProt O15173) 0.325
NVL C391 (UniProt O15381) -0.116
PDLIM1 C283 (UniProt O00151) 0.0113
IGF2BP3 C546 (UniProt O00425) 0.0958
UniProt O00567_C112 0.0351
CLIC1 C24 (UniProt O00299) 0.151
PRPF4 C441 (UniProt O43172) 0.0829
ATOX1 C41 (UniProt O00244) 0.213
PDLIM1 C263 (UniProt O00151) -0.0195
GTPBP1 C46 (UniProt O00178) 0.196
PHGDH C369 (UniProt O43175) 0.501
NVL C550 (UniProt O15381) -0.749

Pulled one by one from the list above, two records:
log2 ratio of iodoacetamide-alkyne labeling, inactive:
PES1 C272 (UniProt O00541) 0.277
UniProt O14733_C360 -0.061
